PubChem BioAssay AID1347076 (National Center for Advancing Translational Sciences (NCATS), 2019)
Out of some 400,000 compounds screened, about 13,000 (3.2%) were called active. Inconclusive results, whose numbers are uncertain, are shown with a selection of clear calls. The call rests on the fitted dose curve; in most records, active means well fitted cell-killing curve with a large enough effect; inconclusive means small, poorly fitted or top-dose-only effect, or effect the other way; inactive means flat fitted curve, though single readings scatter. Where the call is inconclusive, the potency comes from a doubtful curve fit.

experiment: qHTS assay for MDR1-selective chemotherapeutics: Primary screen using the drug-selected MDR subline cells KB-V1; conditions: KB-V1 MDR cells viability, CellTiter-Glo, 72 h; activity change, negative = cytotoxicity: at 46.1 µM (top of the series); further: nearly all actives have a fitted effect of over 60% in size
Outline: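 KB-V1 cells (P-gp-expressing MDR subline of KB-3-1) in phenol-red-free DMEM with 10% FBS were exposed to library compounds over a concentration series for 72 h at 37 degrees C. Viability read by CellTiter-Glo luminescence; concentration-effect curves fitted after normalization.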
On the % scale 0 is the no-effect control and ±100 the full control effect; potency means the concentration at half of the fitted maximal effect.

SMILES | Potency | activity change, negative = cytotoxicity
Cc1nc2sc(C)c(C)c2c(=O)o1 | inconclusive: 0.146 µM [rising, full curve, poor fit] | 
CCN(CC)S(=O)(=O)c1ccc2c(c1)N(CC(=O)NCCCN1CCN(c3cc(C)ccc3C)CC1)C(=O)CO2 | inconclusive: 29.1 µM [cytotoxic, single point] | 
C=CCn1c(SCc2cc(=O)n3cc(C)ccc3n2)nnc1-c1cccc(C)c1 | inconclusive: 11.6 µM [cytotoxic, single point] | 
CCNC(=O)C1CCCN(c2nn3cc(-c4ccc(C)cc4)nc3s2)C1 (stereo not given) |  | inactive: -17.7%
CC(C)c1ccc(CNCCSc2nnnn2-c2ccccc2)cc1 |  | inactive: -6.82%
COc1cc(-c2cnc3c(NC=O)cc(-c4ccc(C)cc4)cn23)cc(OC)c1OC | active: 0.58 µM | 
O=C(NCCO)C(=O)Nc1cc2c3c(c1)CCN3C(=O)CC2 | inconclusive: 3.66 µM [rising, partial curve, poor fit] | 
CCOCc1[nH]c(=S)[nH]c(=O)c1Cc1ccc(OCC)cc1 | inconclusive: 23.1 µM [cytotoxic, single point] | 
Cc1ccccc1NC(=O)CCCNC(=O)c1ccc(Cl)cc1 | inconclusive: 23.1 µM [cytotoxic, single point] | 
COc1ccc(NC(=O)CN2C(=O)C(C)SC(C)C2=O)c(OC)c1 (stereo not given) | inconclusive: 29.1 µM [rising, single point] | 
COc1cccc(Cn2cc(C)cc(NC(=O)NCc3ccccc3)c2=O)c1 | inconclusive: 3.26 µM [cytotoxic, full curve, poor fit] | 
O=C(N/N=C/c1cccs1)c1c[nH]c2ccccc12 | inconclusive: 23.1 µM [cytotoxic, partial curve, poor fit] | 
Cc1cccc(C)c1NC(=O)CN(C)C(=O)CN1C(=O)NC(C)(C)C1=O | inconclusive: 8.2 µM [rising, partial curve, poor fit] | 
CCCCc1nnc(NC(=O)CCSc2ccccc2)s1 | inconclusive: 29.1 µM [cytotoxic, single point] | 
CCC(C(=O)NC1CCCC1)N(C(=O)Cn1nnc(-c2ccc(C)o2)n1)c1ccc(OC)c(OC)c1 (stereo not given) | inconclusive: 4.11 µM [cytotoxic, partial curve, poor fit] | 
CCc1ccc(NC(=O)Cn2c(=O)n(CCC(=O)NCCc3ccc(OC)c(OC)c3)c(=O)c3ccccc32)cc1 |  | inactive: 15.8%
CCOC(=O)c1[nH]c2ccc(OC)cc2c1NC(=S)N1CCN(c2ccc(F)cc2)CC1 |  | inactive: 3.5%
O=C(Nc1ccc(F)cc1F)Nc1sccc1-c1nc2ccccc2s1 |  | inactive: -14.8%
CN(C)c1ccnc2sc(C(=O)c3ccc(Br)cc3)c(N)c12 |  | inactive: -17.4%
CN(c1ccccc1)S(=O)(=O)c1cccc(NC(=O)Cc2c(F)cccc2Cl)c1 | inconclusive: 18.4 µM [cytotoxic, partial curve] | 
COc1ccccc1/C=C/C1(C(=O)NC2CCCC2)CC(=O)N1c1ccc(F)cc1 (stereo not given) | inconclusive: 9.2 µM [cytotoxic, partial curve] | 
COC(=O)CN=Cc1c(C)[nH]n(-c2ccccc2)c1=O |  | inactive: -2.13%
CN(C)C(=O)C(CCN1CCC(O)(c2ccc(Cl)cc2)CC1)(c1ccccc1)c1ccccc1 | inconclusive: 3.26 µM [cytotoxic, partial curve] | 

A different layout for part of the listing above:

| SMILES | Potency | activity change, negative = cytotoxicity |
| --- | --- | --- |
| CC(C)c1ccc(CNCCSc2nnnn2-c2ccccc2)cc1 |  | inactive: -6.82% |
| COc1cc(-c2cnc3c(NC=O)cc(-c4ccc(C)cc4)cn23)cc(OC)c1OC | active: 0.58 µM |  |

(more compounds)

SMILES | Potency | activity change, negative = cytotoxicity
Cc1ccc(-n2nnnc2SCC(=O)NCC2(N3CCOCC3)CCCCC2)c(C)c1 | active: 20.6 µM | 
O=C(CSc1nnc2ccc(-c3cccnc3)nn12)Nc1ccccc1F | inconclusive: 3.26 µM [rising, full curve, poor fit] | 
COc1ccc(/C=C/c2c([N+](=O)[O-])c(=O)n(C)c(=O)n2C)cc1O | inconclusive: 23.1 µM [cytotoxic, single point] | 
O=C1NC[C@H](CCCCN2CCN(Cc3ccccc3)C(=O)C2=O)N(CCC2CCCCC2)C1=O | inconclusive: 14.6 µM [rising, single point] | 
O=C1O[C@@H](c2ccccc2)C[C@@H](O)C(=O)CCCCc2ccccc21 |  | inactive: 2.52%
COc1ccc(NC(=O)[C@@H]2CC=C[C@@H]3CCN(Cc4ccccc4)C(=O)[C@@H]32)cc1 | inconclusive: 14.6 µM [cytotoxic, partial curve, poor fit] | 
COC(=O)c1[nH]c2ccc(C)cc2c1NC(=O)CN1CCN(C(=O)c2ccccc2)CC1 |  | inactive: 0.651%
CCOC(CCn1c(SCc2ccc([N+](=O)[O-])cc2)nc2ccccc2c1=O)OCC | active: 3.66 µM | 
O=C(CCn1c(=O)c2ccccc2n(CC(=O)N2CCN(c3ccccc3)CC2)c1=O)NCc1ccco1 |  | inactive: -3.15%
CCOC(=O)c1sc(Nc2cccc(Cl)c2)nc1C |  | inactive: -28.7%
N#Cc1cc(-c2ccccc2)nc(Oc2ccc(Cl)cc2)n1 | inconclusive: 0.731 µM [cytotoxic, full curve, poor fit] | 
CCOc1ccc(CCNC(=O)COC(=O)c2cccnc2SC)cc1OCC |  | inactive: 0%
Cc1cccc(N2CCN(C(=O)Cc3ccc(Br)cc3)CC2)c1C | inconclusive: 23.1 µM [cytotoxic, single point] | 
CCCNC(=O)c1ccc(C2SCC(=O)N2CCc2ccccc2)cc1 (stereo not given) | inconclusive: 7.31 µM [cytotoxic, partial curve] | 
CC(C)NCc1cc(Br)ccc1OCc1ccccc1 | inconclusive: 9.2 µM [cytotoxic, partial curve] | 
COC(=O)c1ccc2nc(NC(=O)C3CCCCC3)sc2c1 |  | inactive: 0.674%
O=C(NC1CCCCC1)C(c1ccc2ncccc2c1)N(Cc1ccccc1)C(=O)c1cccs1 (stereo not given) | active: 23.1 µM | 
C=CCn1c(NC(=O)c2ccc(C)cc2)nc2ccccc21 |  | inactive: 0.367%
CCOc1ccccc1N1CCN(C(=O)CC(C)C)CC1 | active: 23.1 µM | 
Cc1cc(C)c(C)c(S(=O)(=O)N2CCN(Cc3nc4ccccc4[nH]3)CC2)c1C | inconclusive: 11.6 µM [cytotoxic, partial curve, poor fit] | 
CCCn1c2ccccc2c2cnn(CC(=O)NCCCN3CCN(c4ccccc4)CC3)c(=O)c21 |  | inactive: 8.53%
CC(C)(C)NC(=O)C(c1cccs1)N(C(=O)C(=O)NC1CCCC1)c1ccccc1F (stereo not given) |  | inactive: -27.1%
